A short description of the series: general procedure: Fmoc solid-phase peptide synthesis; 2-chlorotrityl chloride resin (BeadTech, 1% DVB crosslinked, 100 to 200 mesh, 1.41 mmol/g). The settings on record: whole synthesis; for final HPLC purity / isolated yield: scale of the general procedure 10 mmol.

Some peptides are written in HELM: one residue between dots, names in brackets for other building blocks, links after the first $.

Take H-ArgArgArgArg-OH: the isolated mass stood at 1.7 g, the “final HPLC purity” value worked out at 99.1% and the isolated yield was 26.6%.

On to PEPTIDE1{G.H.K.R.R.R.R}$$$$V2.0, for which the isolated mass is on record as 3.6 g, the “final HPLC purity” value was determined as 99.2% and the isolated yield is listed as 37.3%.

As for PEPTIDE1{[Pal].G.H.K.R.R.R.R}$$$$V2.0, the isolated mass came out at 3.4 g, the “final HPLC purity” value was 99.5% and the isolated yield amounted to 28.2%.
